# PubChem BioAssay AID540276 (National Center for Advancing Translational Sciences (NCATS), 2011)
# In all, about 300,000 compounds went through this assay and about 5,400 (1.8%) were called active. Inconclusive means that the source gave no clear call. Such entries were picked first, then a sample of the others. Calls follow the shape of the full dose curve; tested in HEK293 cells. Potencies of inconclusive entries are doubtful fits and often do not repeat.
# Test: qHTS for inhibitors of binding or entry into cells for Marburg Virus
# Conditions: Marburg virus pseudotyped entry inhibition, cell reporter; activity change, negative = inhibition: at 37.8 µM (top of the series) unless noted
# % is scaled to controls: 0 for no effect and ±100 for the full control effect; potency is read from the fitted curve at half-maximal effect.
SMILES,Potency,"activity change, negative = inhibition"
Cc1cccn2c(=O)c3c(nc12)N1CCC(Cc2ccccc2)CC1C1(C3)C(=O)N(C)C(=O)N(C)C1=O (configuration not stated),"inconclusive: 29.1 µM [inhibitor, single point]",
O=C(/C=C/c1c(Cl)cccc1Cl)NCc1ccco1,"inconclusive: 25.9 µM [inhibitor, partial curve, poor fit]",
CCOC(=O)c1ccccc1NC(=O)C(=O)Nc1ccc2nc3n(c(=O)c2c1)CCCCC3,,inactive: 6.53% [at 46.1 µM]
O=C(Nc1ccccc1N1CCOCC1)C1(c2ccc(Cl)cc2)CCC1,"inconclusive: 11.2 µM [inhibitor, partial curve, poor fit]",
O=[N+]([O-])c1ccccc1-c1ccc(/C=N/n2cnnc2)o1,"inconclusive: 9.2 µM [inhibitor, partial curve, poor fit]",
O=C(NCc1ccc(F)cc1)c1ccc2c(Cl)c3c(nc2c1)CCCC3,"inconclusive: 5.62 µM [inhibitor, single point]",
CC(C)N1CCc2c(sc(NC(=O)c3ccc(C(=O)c4ccccc4)cc3)c2C(N)=O)C1,"inconclusive: 20 µM [inhibitor, single point]",
O=C1Nc2cccnc2N(C(=O)CCl)c2ccccc21,"inconclusive: 15.8 µM [inhibitor, partial curve, poor fit]",
CC(=O)Nc1ccc(NC(=O)C(C)OC(=O)c2ccc(S(=O)(=O)N3CCCCCC3)cc2)cc1 (configuration not stated),"inconclusive: 12.6 µM [inhibitor, partial curve, poor fit]",
CC(C)(C)c1ccccc1OCCOCCSc1ncccn1,"inconclusive: 6.51 µM [inhibitor, single point]",
COc1cccc(NC(=O)C2C3CCC4C(CCC32)C4(Cl)Cl)c1 (configuration not stated),,inactive: -2%
O=C(O)c1cccc(-c2ccc(/C=C3/SC(=Nc4ccccc4)N(Cc4cccnc4)C3=O)o2)c1,"inconclusive: 12.6 µM [activator, partial curve, poor fit]",
O=C(CSc1nnc(-c2ccc(O)cc2)o1)NNC(=O)c1ccncc1,"inconclusive: 17.8 µM [activator, single point]",
CC(C)(C)C(=O)CSc1ncnc2c1cnn2-c1ccccc1,"inconclusive: 44.7 µM [activator, partial curve, poor fit]",
CCN(CC)C(=O)C1CC(c2ccc(OC)cc2)=NO1 (configuration not stated),,inactive: 14.2%
NC(=O)c1cc(S(=O)(=O)NCCc2ccc(Cl)cc2)cs1,"inconclusive: 0.316 µM [inhibitor, partial curve, poor fit]",
CCC(=O)N(CCC(c1ccccc1)c1ccco1)Cc1cccs1 (configuration not stated),"inconclusive: 35.5 µM [inhibitor, single point]",
CC(Nc1nc(N2CCN(S(C)(=O)=O)CC2)nc2ccccc12)c1ccccc1 (configuration not stated),"inconclusive: 20.6 µM [inhibitor, single point]",
Cc1c(C(=O)NCCC2=CCCCC2)sc2ncnc(N3CCCCC3C)c12 (configuration not stated),"inconclusive: 31.6 µM [inhibitor, single point]",
CC1CCN(CC(O)COCCC23CC4CC(CC(C4)C2)C3)CC1 (configuration not stated),active: 6.51 µM,
O=c1c(C(c2ccc(F)cc2)c2c(O)nc3n(c2=O)CCS3)c(O)nc2n1CCS2,,inactive: 0% [at 14.2 µM]

# Not a retest: 11 of the compounds above.
SMILES,Potency,"activity change, negative = inhibition"
O=C1Nc2cccnc2N(C(=O)CCl)c2ccccc21,"inconclusive: 15.8 µM [inhibitor, partial curve, poor fit]",
CC(=O)Nc1ccc(NC(=O)C(C)OC(=O)c2ccc(S(=O)(=O)N3CCCCCC3)cc2)cc1 (configuration not stated),"inconclusive: 12.6 µM [inhibitor, partial curve, poor fit]",
CC(C)(C)c1ccccc1OCCOCCSc1ncccn1,"inconclusive: 6.51 µM [inhibitor, single point]",
COc1cccc(NC(=O)C2C3CCC4C(CCC32)C4(Cl)Cl)c1 (configuration not stated),,inactive: -2%
O=C(O)c1cccc(-c2ccc(/C=C3/SC(=Nc4ccccc4)N(Cc4cccnc4)C3=O)o2)c1,"inconclusive: 12.6 µM [activator, partial curve, poor fit]",
O=C(CSc1nnc(-c2ccc(O)cc2)o1)NNC(=O)c1ccncc1,"inconclusive: 17.8 µM [activator, single point]",
CC(C)(C)C(=O)CSc1ncnc2c1cnn2-c1ccccc1,"inconclusive: 44.7 µM [activator, partial curve, poor fit]",
CCN(CC)C(=O)C1CC(c2ccc(OC)cc2)=NO1 (configuration not stated),,inactive: 14.2%
NC(=O)c1cc(S(=O)(=O)NCCc2ccc(Cl)cc2)cs1,"inconclusive: 0.316 µM [inhibitor, partial curve, poor fit]",
CCC(=O)N(CCC(c1ccccc1)c1ccco1)Cc1cccs1 (configuration not stated),"inconclusive: 35.5 µM [inhibitor, single point]",
CC(Nc1nc(N2CCN(S(C)(=O)=O)CC2)nc2ccccc12)c1ccccc1 (configuration not stated),"inconclusive: 20.6 µM [inhibitor, single point]",

# The results go on.

SMILES,Potency,"activity change, negative = inhibition"
COC(=O)c1ccccc1NC1OC(=O)c2ccccc21 (configuration not stated),"inconclusive: 31.6 µM [activator, single point]",
O=C(OCC(=O)N(Cc1ccccc1)Cc1ccccc1)c1cccc(O)c1,"inconclusive: 17.8 µM [activator, single point]",
CCc1ccc(NC(=O)C(C)OC(=O)c2c(C)nn(Cc3ccccc3)c2Cl)cc1 (configuration not stated),,inactive: -22.6% [at 46.1 µM]
O=C(NCC(c1cccnc1)N1CCN(c2ccccc2F)CC1)c1cccc(Cl)c1 (configuration not stated),"inconclusive: 22.4 µM [inhibitor, single point]",
O=C(NNC(=O)c1ccncc1)Nc1cc(Cl)ccc1Cl,"inconclusive: 35.5 µM [activator, single point]",
COc1ccc(OC)c(NC(=O)c2cc3c(=O)oc4ccccc4c3s2)c1,,inactive: 19.4% [at 46.1 µM]
CC(=O)NC1(C(F)(F)F)NC(=O)N(CC(C)C)C1=O (configuration not stated),"inconclusive: 3.98 µM [activator, partial curve, poor fit]",
O=C1CN(c2nc(-c3cccnc3)nc3sc4c(c23)CCCC4)CCN1,"inconclusive: 10 µM [inhibitor, partial curve, poor fit]",
Cc1cc(NC(=O)c2c(F)c(F)c(F)c(F)c2F)no1,"inconclusive: 16.4 µM [inhibitor, single point]",
O=C(COc1ccc(Cl)cc1Cl)NNC(=S)NC(=O)c1ccco1,"inconclusive: 0.794 µM [activator, full curve, poor fit]",
CO[C@]1(C2=NCCN2)COc2ccccc2O1,inactive,
CCOC(=O)c1cc(-c2ccccc2)n(CC(=O)Nc2ccc(OC)c(OC)c2)c1C,,inactive: -19%
COc1ccc(C2CCCN2CC(O)COc2ccccc2C(C)C)cc1 (configuration not stated),"inconclusive: 10 µM [inhibitor, partial curve, poor fit]",
O=c1c2ccccc2[nH]c(=S)n1CCN1CCc2ccccc2C1,"inconclusive: 22.4 µM [inhibitor, single point]",
Cc1ccccc1CN1C(=O)C(O)(CC(=O)c2ccncc2)c2ccccc21 (configuration not stated),,inactive: -2.09%
Cc1nc(NCCN2CCOCC2)c2oc3ccccc3c2n1,,inactive: 7.65%
O=C(CN1C(=O)/C(=C/c2ccccc2)SC1=S)N1CCN(CCc2ccccn2)CC1,"inconclusive: 35.5 µM [inhibitor, single point]",
Cc1cc(S(=O)(=O)NCCC2=CCCCC2)ccc1Br,,inactive: -0.341%
O=C(Nc1ccc(S(=O)(=O)N2CCCCC2)cc1)c1ccc(F)cc1,"inconclusive: 25.1 µM [inhibitor, partial curve, poor fit]",
CC(C)(C)NC(=O)C(c1ccco1)N(C(=O)Cn1nnc(-c2ccc(F)cc2)n1)c1ccccc1F (configuration not stated),"inconclusive: 20.6 µM [inhibitor, partial curve, poor fit]",
COc1cc(/C=N/NC(=O)c2cc(C)n(-c3ccc(F)cc3)c2C)cc(OC)c1O,"inconclusive: 5.62 µM [inhibitor, partial curve, poor fit]",
